Reference: article PMC11194278
Results are given in words; binding and its absence hold for the method and conditions named. Binding seen in cells or lysates may run through a third protein. Some entries that bind do so weakly or less than the wild type. Blank lines part the entries; values can stand above or below the binder they belong to.

By UniProt entry, the sequences of proteins in these tests, tags left out.
UniProt Q96AC1: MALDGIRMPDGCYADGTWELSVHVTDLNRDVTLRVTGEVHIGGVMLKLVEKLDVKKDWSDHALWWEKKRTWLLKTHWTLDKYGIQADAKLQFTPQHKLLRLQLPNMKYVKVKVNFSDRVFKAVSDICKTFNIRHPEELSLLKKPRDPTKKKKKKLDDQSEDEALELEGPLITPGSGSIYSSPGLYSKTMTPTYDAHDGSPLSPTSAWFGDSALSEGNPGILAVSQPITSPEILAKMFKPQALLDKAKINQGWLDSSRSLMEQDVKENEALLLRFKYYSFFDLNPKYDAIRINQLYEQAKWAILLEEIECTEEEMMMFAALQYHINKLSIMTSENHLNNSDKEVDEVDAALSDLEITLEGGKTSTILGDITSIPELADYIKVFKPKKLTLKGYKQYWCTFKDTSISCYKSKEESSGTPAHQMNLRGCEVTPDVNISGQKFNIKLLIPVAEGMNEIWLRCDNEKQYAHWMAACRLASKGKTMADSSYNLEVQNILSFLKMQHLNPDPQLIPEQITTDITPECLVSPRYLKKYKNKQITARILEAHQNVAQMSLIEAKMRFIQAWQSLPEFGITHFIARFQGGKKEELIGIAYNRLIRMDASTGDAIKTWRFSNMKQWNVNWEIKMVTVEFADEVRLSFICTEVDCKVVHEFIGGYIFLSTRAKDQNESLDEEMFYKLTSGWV

Molecular target: FERMT2 (human (endogenous in CAFs)) (UniProt Q96AC1)
Test: co-IP; endogenous proteins in CAF lysate (NP-40 lysis buffer with protease inhibitors); protein A/G magnetic beads with anti-FERMT2, anti-PYCR1 or anti-TGFBR1 antibodies (mouse or rabbit IgG as control), overnight at 4 °C; western blot; also after treatment of CAFs with IEVs-PFD, IEVs-138 or IEVs-PFD/138 (less of the complexes)

binding: binds
B1: TGFBR1 (receptor, UniProt P36897 34-503)
chain: LQCFCHLCTKDNFTCVTDGLCFVSVTETTDKVIHNSMCIAEIDLIPRDRPFVCAPSSKTGSVTTTYCCNQDHCNKIELPTTVKSSPGLGPVELAAVIAGPVCFVCISLMLMVYICHNRTVIHHRVPNEEDPSLDRPFISEGTTLKDLIYDMTTSGSGSGLPLLVQRTIARTIVLQESIGKGRFGEVWRGKWRGEEVAVKIFSSREERSWFREAEIYQTVMLRHENILGFIAADNKDNGTWTQLWLVSDYHEHGSLFDYLNRYTVTVEGMIKLALSTASGLAHLHMEIVGTQGKPAIAHRDLKSKNILVKKNGTCCIADLGLAVRHDSATDTIDIAPNHRVGTKRYMAPEVLDDSINMKHFESFKRADIYAMGLVFWEIARRCSIGGIHEDYQLPYYDLVPSDPSVEEMRKVVCEQKLRPNIPNRWQSCEALRVMAKIMRECWYANGAARLTALRIKKTLSQLSQQEGIKM

binding: binds
B2: PYCR1 (enzyme, UniProt P32322 1-319)
chain: MSVGFIGAGQLAFALAKGFTAAGVLAAHKIMASSPDMDLATVSALRKMGVKLTPHNKETVQHSDVLFLAVKPHIIPFILDEIGADIEDRHIVVSCAAGVTISSIEKKLSAFRPAPRVIRCMTNTPVVVREGATVYATGTHAQVEDGRLMEQLLSSVGFCTEVEEDLIDAVTGLSGSGPAYAFTALDALADGGVKMGLPRRLAVRLGAQALLGAAKMLLHSEQHPGQLKDNVSSPGGATIHALHVLESGGFRSLLINAVEASCIRTRELQSMADQEQVSPAAIKKTILDKVKLDSPAGTALSPSGHTKLLPRSLAPAGKD
